Test results from paper PMC7819943, “Rice protein-binding microarrays: a tool to detect cis-acting elements near promoter regions in rice”.
This is one part of the list.

These sequences were tested against T1, OsSMF1 (Oryza sativa, UniProt Q6ZLB0 1-436) (assay: protein-binding microarray (RPBM); PBS, 2% BSA, 51.3 ng/ul salmon testes DNA, 50 uM zinc acetate, 200 nM TF, 25 C, 1 h; high values mean tight binding). Conditions: protein: recombinant; tags: N-terminal polyhistidine and DsRed monomer fusion (pET32a); chain copies: 2; label: CyDye5-dUTP incorporated in the synthesized complementary strand; 3' TTTTT single-stranded linker to array surface; dsDNA, one strand shown.
T1 sequence: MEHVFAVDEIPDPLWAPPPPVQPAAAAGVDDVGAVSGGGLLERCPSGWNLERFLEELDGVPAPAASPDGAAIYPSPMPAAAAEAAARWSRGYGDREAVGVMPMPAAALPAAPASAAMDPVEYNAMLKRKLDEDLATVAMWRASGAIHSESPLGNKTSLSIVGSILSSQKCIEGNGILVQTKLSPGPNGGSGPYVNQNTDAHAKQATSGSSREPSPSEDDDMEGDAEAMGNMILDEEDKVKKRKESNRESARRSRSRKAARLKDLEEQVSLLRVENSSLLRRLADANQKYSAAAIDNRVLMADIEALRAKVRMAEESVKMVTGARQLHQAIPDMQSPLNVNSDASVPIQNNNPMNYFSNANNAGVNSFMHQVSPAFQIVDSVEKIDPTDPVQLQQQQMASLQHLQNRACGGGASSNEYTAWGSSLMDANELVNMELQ
Procedure, shortened: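 Binding signal is defined as the fluorescence intensity of each feature in arbitrary units, read on an Axon 4000B scanner. Transcription factors with N-terminal polyhistidine and DsRed fusions came from E. coli BL21-CodonPlus and were purified on Ni–NTA. They were incubated at 200 nM for 1 h at 25 °C on a custom Agilent array that had been made double-stranded with Cy5-dUTP, with 50 µM zinc acetate present, and the array was washed.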

| Sequence | binding signal |
| --- | --- |
| GGAATTAAAATCAAGTCAGCAAGCCATGTAGATGTCGTGCCGGAGTCACCTAGTGCAG | 4520 fluorescence intensity (a.u.) |
| ATATTTAACATTAGTATTGTAGAGACATTCATACGCATGACGGAGTCACCTAGTGCAG | 3200 fluorescence intensity (a.u.) |
| CTTGCTGTGTTTTCTTCTTCCTCCCTACTACTCGGTTTCTCGGAGTCACCTAGTGCAG | 4220 fluorescence intensity (a.u.) |
| TCCACCATTGACCAATGCCACGTCCTGCCAAATCCTCCTCCGGAGTCACCTAGTGCAG | 13600 fluorescence intensity (a.u.) |
| TTTTCCGCGTCTTTTCATCTCACTTACGTGTGGGACCCACCGGAGTCACCTAGTGCAG | 5790 fluorescence intensity (a.u.) |
| GAGACGCGGAGAGTTGACACGGTGTCATTTATTGCGACCCCGGAGTCACCTAGTGCAG | 4030 fluorescence intensity (a.u.) |
| TAAGTGCAGTTTTAACATTGTTTATGCTCAACGTTTAATCCGGAGTCACCTAGTGCAG | 19400 fluorescence intensity (a.u.) |
| CGGATCCCTGAACGTGTCGTGGGTGTCATATAGGTCCAAGCGGAGTCACCTAGTGCAG | 3480 fluorescence intensity (a.u.) |
| TTCACCCACGCCACGCCGCCACCGCCTCGCTTTTCCTTCTCGGAGTCACCTAGTGCAG | 3180 fluorescence intensity (a.u.) |
| ACAGGTCATAGAAAGATCGGTGACGGGCTGACGGTGAACGCGGAGTCACCTAGTGCAG | 4350 fluorescence intensity (a.u.) |
| CGTATGATTGTTTGCTACCTTATGATGTCAGATTCCTGATCGGAGTCACCTAGTGCAG | 7010 fluorescence intensity (a.u.) |
| TGACCAAGGCAGCAGCAGCAGCAGCTAGCTAGCTGAGTCACGGAGTCACCTAGTGCAG | 6750 fluorescence intensity (a.u.) |
| GCCGCCGCCACTTACGCCGACACCCTCCTCCACATCGCCGCGGAGTCACCTAGTGCAG | 3350 fluorescence intensity (a.u.) |
| AGCTCGAGACCCTTCCACCTCCGTGTCGTCACCGGAAATCCGGAGTCACCTAGTGCAG | 3380 fluorescence intensity (a.u.) |
| GGGTATACTATGACGTTATAGTGATGTGTATACGTGTACGCGGAGTCACCTAGTGCAG | 6500 fluorescence intensity (a.u.) |
| CAAGTCGAGACAGCAGGAAGCTGACGCGTTACAAGGTTTGCGGAGTCACCTAGTGCAG | 5220 fluorescence intensity (a.u.) |
| ACTTTGGGGTGCCAAGGTCACGTCACCATCATTCCAACGTCGGAGTCACCTAGTGCAG | 9270 fluorescence intensity (a.u.) |
| TATGTTTAGTTTCGTTGTATTATGATGTGTACTATGTTGGCGGAGTCACCTAGTGCAG | 3990 fluorescence intensity (a.u.) |
| GACGAAGAGGGAGCTGGACAAAAGATAAGTGGTAGAGGGGCGGAGTCACCTAGTGCAG | 15400 fluorescence intensity (a.u.) |
| TGTACGTGCATCCGCGTGGAGCGGGATGCGGGAGCGCAACCGGAGTCACCTAGTGCAG | 3240 fluorescence intensity (a.u.) |
| AGTGGACTGGCCGTAGAGGTGTATAATGGCAACATTTGACCGGAGTCACCTAGTGCAG | 4080 fluorescence intensity (a.u.) |

3 entries drawn at random from the list so far:

| Sequence | binding signal |
| --- | --- |
| AGTGGACTGGCCGTAGAGGTGTATAATGGCAACATTTGACCGGAGTCACCTAGTGCAG | 4080 fluorescence intensity (a.u.) |
| CGTATGATTGTTTGCTACCTTATGATGTCAGATTCCTGATCGGAGTCACCTAGTGCAG | 7010 fluorescence intensity (a.u.) |
| TATGTTTAGTTTCGTTGTATTATGATGTGTACTATGTTGGCGGAGTCACCTAGTGCAG | 3990 fluorescence intensity (a.u.) |

Next part

| Sequence | binding signal |
| --- | --- |
| CACGACGCGGCGGCGGAGGTGTTGCACCGTCAGCCACGCCCGGAGTCACCTAGTGCAG | 5900 fluorescence intensity (a.u.) |
| GCCAACACACATCATCAGTAGCTAGCTAGCTACCTTTGTGCGGAGTCACCTAGTGCAG | 3150 fluorescence intensity (a.u.) |
| TCACTCCCTCCCACTCCAACCACCACATCAGCATCAGCAACGGAGTCACCTAGTGCAG | 7390 fluorescence intensity (a.u.) |
| GTTGACCCATGTCACCACCCTAGCCACCCAATCGACCTTCCGGAGTCACCTAGTGCAG | 3190 fluorescence intensity (a.u.) |
| GATCGCGCTCCCGGCATCTAGCTGGCTCCAATCCGTTGCACGGAGTCACCTAGTGCAG | 3970 fluorescence intensity (a.u.) |
| TTTGTGGTTGGAGGTTATGAATCATACTCGAGGCATAGTTCGGAGTCACCTAGTGCAG | 22000 fluorescence intensity (a.u.) |
| TACAGATGCCCGTCATGACTCATGATCCGTTTGGATCAAACGGAGTCACCTAGTGCAG | 4140 fluorescence intensity (a.u.) |
| GGCGGCGGCGGAGGAGGAGGCGGATGTGGCGGCGGAGAGCCGGAGTCACCTAGTGCAG | 3900 fluorescence intensity (a.u.) |
| TTTCCAATCAATACATTGCCAATTTGCCATGCCCCGCGCGCGGAGTCACCTAGTGCAG | 4990 fluorescence intensity (a.u.) |
| TTCTTCCTCGCTTGTGGCCCTGCCAGCTCAGTCTGGACCGCGGAGTCACCTAGTGCAG | 7410 fluorescence intensity (a.u.) |
| ACGGACATTTTGTCTATGACGCGGTAAGAGGGAGGGAAAACGGAGTCACCTAGTGCAG | 4930 fluorescence intensity (a.u.) |
| TTGCAGCGTGCAGCTGACTCTACCGGTTAAAGGCATGTACCGGAGTCACCTAGTGCAG | 4590 fluorescence intensity (a.u.) |
| AATATTATTGACTTGTAGGACATGACGCTTGACTGATAATCGGAGTCACCTAGTGCAG | 3930 fluorescence intensity (a.u.) |
| ACGCTCCCACGGGAGGTGGCAGTTGACGTCGTCCCGTCATCGGAGTCACCTAGTGCAG | 4380 fluorescence intensity (a.u.) |
| TAACTCAGCCGACAGACGCATTGCTTACACACGTCGTAACCGGAGTCACCTAGTGCAG | 3720 fluorescence intensity (a.u.) |
| GTCAGCTAGCGTACGTCTAGACTAGACCGCGTAATAACAGCGGAGTCACCTAGTGCAG | 3170 fluorescence intensity (a.u.) |
| AGCCTGACATGTTCAGGCCTAGTCATATAAATCCAATTGTCGGAGTCACCTAGTGCAG | 6160 fluorescence intensity (a.u.) |
| CACTATGACCCGTGGCAATGAATTCCCCAATCAGCAACTGCGGAGTCACCTAGTGCAG | 3250 fluorescence intensity (a.u.) |
| TGTGGCGCAAACTAACTATATTGTGACTAATCATGAGTTTCGGAGTCACCTAGTGCAG | 4700 fluorescence intensity (a.u.) |
| CAACAAGAAGCGGAAGCTCCCCGAGAAGCAGCTCCCCGACCGGAGTCACCTAGTGCAG | 16100 fluorescence intensity (a.u.) |
| GAGAGATAAGGGCAACTACACACGTCGGTTGTGCTGGTAGCGGAGTCACCTAGTGCAG | 4570 fluorescence intensity (a.u.) |
